# Laboratory results reported in the supplement of paper PMC8728848.
# The list shows a part of the results.
# Columns and labels:
# Assay in all cases: glycan array binding signal (z-score within array); higher = stronger binding
# Settings in all cases: glycan notation: IUPAC condensed, linker removed
# Fuc(a1-2)Gal = target: Fuc(a1-2)Gal
# Summary of the method: (§1)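 The Consortium for Functional Glycomics database supplied 3228 glycan arrays, of which those lacking an available protein sequence were dropped. The binding signal, a within-array Z-score, was averaged across arrays of the same protein sequence and across linkers. Negative scores can be read as non-binding.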
# Fuc(a1-2)Gal(b1-3)GalNAc = target: Fuc(a1-2)Gal(b1-3)GalNAc
# Summary of the method: as §1
# [1] = target: Fuc(a1-2)Gal(b1-3)GalNAc(b1-3)Gal
# Summary of the method: as §1
# [2] = target: Fuc(a1-2)Gal(b1-3)GalNAc(b1-3)Gal(a1-4)Gal(b1-4)Glc
# Summary of the method: as §1
# [3] = target: Fuc(a1-2)Gal(b1-3)GalNAc(b1-4)[Neu5Ac(a2-3)]Gal(b1-4)Glc
# Summary of the method: as §1
# Fuc(a1-2)Gal(b1-3)GlcNAc = target: Fuc(a1-2)Gal(b1-3)GlcNAc
# Summary of the method: as §1
# [4] = target: Fuc(a1-2)Gal(b1-3)GlcNAc(b1-2)Man(a1-3)[Fuc(a1-2)Gal(b1-3)GlcNAc(b1-2)Man(a1-6)]Man(b1-4)GlcNAc(b1-4)GlcNAc
# Summary of the method: as §1
# [5] = target: Fuc(a1-2)Gal(b1-3)GlcNAc(b1-3)Gal(b1-4)Glc
# Summary of the method: as §1
# [6] = target: Fuc(a1-2)Gal(b1-3)GlcNAc(b1-3)[Gal(b1-4)[Fuc(a1-3)]GlcNAc(b1-6)]Gal(b1-4)Glc
# Summary of the method: as §1
# [7] = target: Fuc(a1-2)Gal(b1-3)[Fuc(a1-4)]GlcNAc
# Summary of the method: as §1
# [8] = target: Fuc(a1-2)Gal(b1-3)[Fuc(a1-4)]GlcNAc(b1-2)Man(a1-3)[Fuc(a1-2)Gal(b1-3)[Fuc(a1-4)]GlcNAc(b1-2)Man(a1-6)]Man(b1-4)GlcNAc(b1-4)GlcNAc
# Summary of the method: as §1
# Fuc(a1-2)Gal(b1-4)Glc = target: Fuc(a1-2)Gal(b1-4)Glc
# Summary of the method: as §1
# Fuc(a1-2)Gal(b1-4)Glc6S = target: Fuc(a1-2)Gal(b1-4)Glc6S
# Summary of the method: as §1
# Fuc(a1-2)Gal(b1-4)GlcNAc = target: Fuc(a1-2)Gal(b1-4)GlcNAc
# Summary of the method: as §1
# [9] = target: Fuc(a1-2)Gal(b1-4)GlcNAc(b1-2)Man(a1-3)[Fuc(a1-2)Gal(b1-4)GlcNAc(b1-2)Man(a1-6)]Man(b1-4)GlcNAc(b1-4)GlcNAc
# Summary of the method: as §1
# [10] = target: Fuc(a1-2)Gal(b1-4)GlcNAc(b1-3)Gal(b1-4)GlcNAc
# Summary of the method: as §1
# [11] = target: Fuc(a1-2)Gal(b1-4)GlcNAc(b1-3)Gal(b1-4)GlcNAc(b1-3)Gal(b1-4)GlcNAc
# Summary of the method: as §1
# [12] = target: Fuc(a1-2)Gal(b1-4)GlcNAc6S
# Summary of the method: as §1
# [13] = target: Fuc(a1-2)Gal(b1-4)[Fuc(a1-3)]GlcNAc
# Summary of the method: as §1
# [14] = target: Fuc(a1-2)Gal(b1-4)[Fuc(a1-3)]GlcNAc(b1-2)Man(a1-3)[Fuc(a1-2)Gal(b1-4)[Fuc(a1-3)]GlcNAc(b1-2)Man(a1-6)]Man(b1-4)GlcNAc(b1-4)GlcNAc
# Summary of the method: as §1
# [15] = target: Fuc(a1-2)Gal(b1-4)[Fuc(a1-3)]GlcNAc(b1-3)Gal(b1-4)[Fuc(a1-3)]GlcNAc
# Summary of the method: as §1
# [16] = target: Fuc(a1-2)Gal(b1-4)[Fuc(a1-3)]GlcNAc(b1-3)Gal(b1-4)[Fuc(a1-3)]GlcNAc(b1-3)Gal(b1-4)[Fuc(a1-3)]GlcNAc
# Summary of the method: as §1
# Fuc(a1-2)Gal6S(b1-4)Glc = target: Fuc(a1-2)Gal6S(b1-4)Glc
# Summary of the method: as §1
# [17] = target: Fuc(a1-2)Gal6S(b1-4)Glc6S
# Summary of the method: as §1
# [18] = target: Fuc(a1-2)Gal6S(b1-4)GlcNAc
# Summary of the method: as §1
# Fuc(a1-2)[Gal(a1-3)]Gal = target: Fuc(a1-2)[Gal(a1-3)]Gal
# Summary of the method: as §1
# [19] = target: Fuc(a1-2)[Gal(a1-3)]Gal(b1-3)GlcNAc
# Summary of the method: as §1
# [20] = target: Fuc(a1-2)[Gal(a1-3)]Gal(b1-3)GlcNAc(b1-2)Man(a1-3)[Fuc(a1-2)[Gal(a1-3)]Gal(b1-3)GlcNAc(b1-2)Man(a1-6)]Man(b1-4)GlcNAc(b1-4)GlcNAc
# Summary of the method: as §1
# [21] = target: Fuc(a1-2)[Gal(a1-3)]Gal(b1-4)Glc
# Summary of the method: as §1
# [22] = target: Fuc(a1-2)[Gal(a1-3)]Gal(b1-4)GlcNAc
# Summary of the method: as §1
binder,measurement,setting,value
"4F2hc (Homo sapiens), P08195 (protein) WWHTGALYRIGDLQAFQGHGAGNLAGLKGRLDYLSSLKVKGLVLGPIHKNQKDDVAQTDLLQIDPNFGSKEDFDSLLQSAKKKSIRVILDLTPNYRGENSWFSTQVDTVATKVKDALEFWLQAGVDGFQVRDIENLKDASSFLAEWQNITKGFSEDRLLIAGTNSSDLQQILSLLESNKDLLLTSSYLSDSGSTGEHTKSLVTQYLNATGNRWCSWSLSQARLLTSFLPAQLLRLYQLMLFTLPGTPVFSYGDEIGLDAAALPGQPMEAPVMLWDESSFPDIPGAVSANMTVKGQSEDPGSLLSLFRRLSDQRSKERSLLHGDFHAFSAGPGLFSYIRHWDQNERFLVVLNFGDVGLSAGLQASDLPASASLPAKADLLLSTQPGREEGSPLELERLKLEPHEGLLLRFPYAA",glycan array binding signal (z-score),Fuc(a1-2)Gal,-0.463
same,glycan array binding signal (z-score),Fuc(a1-2)Gal(b1-3)GalNAc,1.57
same,glycan array binding signal (z-score),[1],-0.349
same,glycan array binding signal (z-score),[2],-0.609
same,glycan array binding signal (z-score),[3],0.444
same,glycan array binding signal (z-score),Fuc(a1-2)Gal(b1-3)GlcNAc,-0.589
same,glycan array binding signal (z-score),[4],-0.859
same,glycan array binding signal (z-score),[5],-0.548
same,glycan array binding signal (z-score),[6],1.24
same,glycan array binding signal (z-score),[7],-0.964
same,glycan array binding signal (z-score),[8],-0.402
same,glycan array binding signal (z-score),Fuc(a1-2)Gal(b1-4)Glc,-0.723
same,glycan array binding signal (z-score),Fuc(a1-2)Gal(b1-4)Glc6S,-1.04
same,glycan array binding signal (z-score),Fuc(a1-2)Gal(b1-4)GlcNAc,0.985
same,glycan array binding signal (z-score),[9],-0.399
same,glycan array binding signal (z-score),[10],0.51
same,glycan array binding signal (z-score),[11],0.737
same,glycan array binding signal (z-score),[12],-0.129
same,glycan array binding signal (z-score),[13],0.492
same,glycan array binding signal (z-score),[14],0.184
same,glycan array binding signal (z-score),[15],-0.122
same,glycan array binding signal (z-score),[16],-0.346
same,glycan array binding signal (z-score),Fuc(a1-2)Gal6S(b1-4)Glc,0.052
same,glycan array binding signal (z-score),[17],-0.953
same,glycan array binding signal (z-score),[18],-1.01
same,glycan array binding signal (z-score),Fuc(a1-2)[Gal(a1-3)]Gal,-0.718
same,glycan array binding signal (z-score),[19],0.071
same,glycan array binding signal (z-score),[20],-0.902
same,glycan array binding signal (z-score),[21],-0.23
same,glycan array binding signal (z-score),[22],0.547

# Pulled one by one from above (two):
binder,measurement,setting,value
"4F2hc (Homo sapiens), P08195 (protein) WWHTGALYRIGDLQAFQGHGAGNLAGLKGRLDYLSSLKVKGLVLGPIHKNQKDDVAQTDLLQIDPNFGSKEDFDSLLQSAKKKSIRVILDLTPNYRGENSWFSTQVDTVATKVKDALEFWLQAGVDGFQVRDIENLKDASSFLAEWQNITKGFSEDRLLIAGTNSSDLQQILSLLESNKDLLLTSSYLSDSGSTGEHTKSLVTQYLNATGNRWCSWSLSQARLLTSFLPAQLLRLYQLMLFTLPGTPVFSYGDEIGLDAAALPGQPMEAPVMLWDESSFPDIPGAVSANMTVKGQSEDPGSLLSLFRRLSDQRSKERSLLHGDFHAFSAGPGLFSYIRHWDQNERFLVVLNFGDVGLSAGLQASDLPASASLPAKADLLLSTQPGREEGSPLELERLKLEPHEGLLLRFPYAA",glycan array binding signal (z-score),[22],0.547
same,glycan array binding signal (z-score),[8],-0.402
